Assay results: PubChem BioAssay AID2685 (National Center for Advancing Translational Sciences (NCATS), 2010)
The list shows a part of the results. Further columns of the screen follow, without active or inactive calls. Most of these compounds were active or inconclusive in the main read-out, so they are no random draw. Potencies come from curve fits of mixed quality, noted in brackets.

Experiment: qHTS Assay for Lipid Storage Modulators in Drosophila S3 Cells;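 for cell number change: cells counted by Cell Tracker Red CMTPX staining in the red channel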
Conditions: BODIPY lipid droplet fluorescence, 18-24 h; for cell number change: measured here: cell count max response, cells fed with added oleic acid
In short: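 Drosophila S3 cells loaded with oleic acid (400 uM, as added) and compounds at several concentrations; lipid droplets imaged by 488-nm laser-scanning cytometry, 500–530 nm intensity and object ratio to cell channel. Percent activity normalized to 20 uM Triacsin C.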

[1] = measured here: lipid fluorescence (Fed channel) AC50, cells fed with added oleic acid
[2] = measured here: cell number channel AC50, cells fed with added oleic acid

O=[N+]([O-])c1ccc(SCCc2ccccn2)cc1
cell number change: 19.3%
AC50 [1]: 29.1 µM [rising, single point]

Clc1ccc(CO/N=C2\CCCc3nonc32)c(Cl)c1
cell number change: 4.49%
AC50 [1]: 4.61 µM [rising, full curve, poor fit]

Cc1nnc(NC(=O)c2cccc(NC(=O)C(C)C)c2)s1
cell number change: -22.1%
AC50 [1]: 1.16 µM [falling, full curve]

CCCCCCOc1ccc(/C(C)=N/NC2=NCCN2)cc1[N+](=O)[O-]
cell number change: -21.2%
AC50 [1]: 2.06 µM [falling, partial curve, poor fit]

O=C(CNS(=O)(=O)c1c(Cl)cccc1Cl)N1CCCCCC1
cell number change: 31.4%
AC50 [2]: 29.1 µM [rising, partial curve, poor fit]

O=C1CC(N2CCOCC2)C(=O)N1c1ccc2c(c1)OCO2 (centres undefined)
cell number change: 15.6%

CCCOc1ccc(NC(=O)CC2C(=O)N(C)C(=S)N2Cc2cccs2)cc1 (centres undefined)
cell number change: -53.2%
AC50 [2]: 23.1 µM [falling, partial curve, poor fit]
AC50 [1]: 25.9 µM [falling, partial curve, poor fit]

CCn1nnnc1NC(=O)c1cccc(OC)c1
cell number change: -14.3%
AC50 [1]: 0.082 µM [falling, full curve, poor fit]

O=C(NNc1ccc([N+](=O)[O-])cc1[N+](=O)[O-])c1ccco1
cell number change: -38.1%
AC50 [2]: 14.1 µM [falling, single point]
AC50 [1]: 10 µM [falling, partial curve]

COc1ccc(/C(CC2OC(=O)c3ccccc32)=N\NC(N)=O)cc1 (centres undefined)
cell number change: -17.5%
AC50 [2]: 0.731 µM [rising, partial curve, poor fit]

O=C(Nc1ccccc1N1CCOCC1)c1cc(F)cc(F)c1
cell number change: 45.2%
AC50 [2]: 7.31 µM [rising, partial curve, poor fit]
AC50 [1]: 1.3 µM [rising, full curve, poor fit]

Cc1cccc(-n2ccnc2SCC(=O)Nc2nccs2)c1
cell number change: -31.2%
AC50 [2]: 18.4 µM [falling, single point]
AC50 [1]: 16.4 µM [falling, single point]

Cc1ccc(C)c(-c2cc(C(=O)Nc3sc(C)c(C)c3C(N)=O)c3ccccc3n2)c1
AC50 [1]: 25.9 µM [falling, single point]

Cc1ccccc1NC(=O)CN(C)S(=O)(=O)c1cccc2cccnc12
cell number change: 52.9%
AC50 [2]: 2.59 µM [rising, partial curve, poor fit]

COc1ccc(NC(=O)COc2ccc(/C=N/n3c(C)nnc3C)cc2OC)cc1
AC50 [2]: 0.058 µM [rising, full curve, poor fit]
AC50 [1]: 6.51 µM [rising, partial curve, poor fit]

CCOc1ccc(NC(=O)c2ccccc2OC)cc1
cell number change: 26.9%
AC50 [2]: 0.366 µM [rising, full curve]
AC50 [1]: 0.517 µM [rising, full curve]

CN1CCN(Cc2c(O)ccc3c(=O)c(Oc4ccccc4Cl)c(C(F)(F)F)oc23)CC1
cell number change: 1.71%

COc1ccccc1-c1cc(C(=O)N2CCCCC2)no1
cell number change: 43.5%
AC50 [2]: 29.1 µM [rising, single point]
AC50 [1]: 13 µM [rising, partial curve]

CCOC(=O)c1sc(NC(=O)C2CC(=O)N(c3ccc(OC)cc3)C2)nc1C (centres undefined)
cell number change: -2.56%

COC(=O)/C=C1\SC(=NC(=O)c2ccc(C)cc2)NC1=O
cell number change: -35.1%
AC50 [2]: 0.103 µM [rising, full curve, poor fit]

N#C/C(=C\c1cccc([N+](=O)[O-])c1)C(=O)NCC1CCCO1 (centres undefined)
cell number change: -35.1%
AC50 [2]: 23.1 µM [falling, single point]

O=c1ccnc(SCCC(F)=C(F)F)[nH]1
cell number change: 1.96%
AC50 [2]: 0.00517 µM [falling, full curve, poor fit]
AC50 [1]: 6.51 µM [falling, partial curve, poor fit]

Cc1ccc(C(=O)Nc2ccccc2C(=O)Nc2ccccn2)cc1Cl
cell number change: -11.4%
AC50 [1]: 29.1 µM [falling, single point]

COc1ccc(CNC(=O)COc2ccc(S(=O)(=O)N3CCOCC3)cc2)cc1
cell number change: 29.1%
AC50 [1]: 0.517 µM [rising, single point]

N#Cc1ccc(Oc2ccc(S(=O)(=O)N3CCCCC3)cn2)cc1
AC50 [2]: 0.13 µM [falling, full curve, poor fit]

CC(=O)Nc1ccc(O)cc1
cell number change: 5.23%
AC50 [1]: 11.6 µM [falling, partial curve, poor fit]

CCOC(=O)C1=C(C)NC(=O)NC1c1ccc(F)cc1 (centres undefined)
cell number change: 0.604%
AC50 [1]: 23.1 µM [rising, single point]

O=C(NCc1cccs1)C1CCCN1C(=O)Nc1ccccc1Cl (centres undefined)
cell number change: -2.63%

CCOC(=O)C1=C(C)N=c2s/c(=C/c3ccccc3)c(=O)n2C1c1ccc(OC)c(OC)c1 (centres undefined)
cell number change: 10.4%
AC50 [1]: 16.4 µM [falling, single point]

CCOc1cc(CNCc2cccnc2)cc(Br)c1OCC(N)=O
cell number change: -9.89%
AC50 [1]: 0.731 µM [falling, full curve, poor fit]

N#C/C(=C\Nc1ccc2cn[nH]c2c1)c1nc(-c2ccc(Cl)cc2)cs1
cell number change: -73.5%
AC50 [2]: 10.3 µM [falling, partial curve]
AC50 [1]: 5.17 µM [falling, partial curve]

O=C(CSc1nnc(-c2ccc(NS(=O)(=O)c3ccccc3)cc2)o1)NCC1CCCO1 (centres undefined)
cell number change: 16.6%
AC50 [2]: 0.58 µM [rising, partial curve]

CCN(CC)CCCCCC(=O)Nc1ccccc1C(=O)Nc1ccccc1
cell number change: 4.2%

O=C(O)CCC(=O)N1CCN(S(=O)(=O)c2cccs2)CC1
cell number change: 7.31%
AC50 [1]: 0.00411 µM [rising, full curve, poor fit]

CC1CCCCN1CCNC(=O)c1cc2c(-c3ccccc3F)nn(C)c2s1 (centres undefined)
cell number change: -20.3%
AC50 [1]: 0.82 µM [rising, full curve]

CN(C)S(=O)(=O)c1ccc(NC(=O)CNc2cc(S(=O)(=O)N3CCCC3)ccc2OCC(F)(F)F)cc1
cell number change: -40.3%
AC50 [2]: 0.366 µM [falling, full curve]
AC50 [1]: 5.8 µM [falling, full curve]
